In doi:10.1101/2024.10.21.619442 one finds binding data, which are given here for 2 substances.

Sequences of proteins named here, by UniProt entry; tags and fusion partners are left off.
UniProt P35222: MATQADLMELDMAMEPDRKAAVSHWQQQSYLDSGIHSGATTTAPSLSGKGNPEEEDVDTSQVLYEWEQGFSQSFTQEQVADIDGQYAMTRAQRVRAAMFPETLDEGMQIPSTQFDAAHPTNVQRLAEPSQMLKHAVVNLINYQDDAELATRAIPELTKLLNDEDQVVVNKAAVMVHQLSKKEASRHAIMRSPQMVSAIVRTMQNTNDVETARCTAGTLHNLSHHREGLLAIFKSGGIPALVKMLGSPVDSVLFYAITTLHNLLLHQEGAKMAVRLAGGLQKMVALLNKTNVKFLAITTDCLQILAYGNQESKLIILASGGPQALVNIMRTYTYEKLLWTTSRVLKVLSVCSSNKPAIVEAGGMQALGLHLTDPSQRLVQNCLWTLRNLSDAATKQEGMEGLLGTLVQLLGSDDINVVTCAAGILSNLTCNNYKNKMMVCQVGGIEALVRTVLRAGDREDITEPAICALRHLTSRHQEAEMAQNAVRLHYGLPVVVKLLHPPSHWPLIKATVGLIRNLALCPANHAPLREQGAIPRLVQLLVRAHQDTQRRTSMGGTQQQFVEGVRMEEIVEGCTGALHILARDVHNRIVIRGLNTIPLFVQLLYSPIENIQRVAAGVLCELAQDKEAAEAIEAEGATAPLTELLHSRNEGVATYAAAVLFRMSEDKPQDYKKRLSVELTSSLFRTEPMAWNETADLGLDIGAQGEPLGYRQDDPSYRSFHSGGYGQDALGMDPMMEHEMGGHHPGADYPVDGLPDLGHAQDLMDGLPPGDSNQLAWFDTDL

Results are given in words; binding and its absence hold for the method and conditions named. Binding seen in cells or lysates may run through a third protein. Binding calls can cover weak binding; strength is not graded here.

For test [1], the target named is endogenous β-catenin (human (endogenous in HEK293T)) (UniProt P35222). Nature of the test: co-IP.
The target of test [2] is V5-tagged FBXW11^WT (human) (UniProt E5RGC1). As to the kind of experiment: co-IP.

For the substance “V5-tagged FBXW11^WT (from UniProt E5RGC1)”, the binding entry in test [1] is on record as “binds”.

On to “Flag-tagged β-catenin (from UniProt P35222 1-781)”, for which the binding entry in test [2] is “binds”.
